Measured values taken from patent US6576620B2, “Method of identifying partial adenosine A1 receptor agonists” (CV Therapeutics, Inc., priority 1999, dated 2003).
For at least one compound, name, drawing or mass did not settle the structure.

Tested on: guinea pig isolated heart
Experiment: A-V nodal conduction time / S-H interval, isolated perfused heart
Conditions: Table 5; 2759 = CVT-2759
Procedure: This method evaluates the potencies of compounds to cause coronary vasodilation (A2A AdoR response) and to prolong A-V nodal conduction time (A1 AdoR response).
Rats and guinea pigs, of either sex weighing from 230 to 260 grams and 300 to 350 grams, respectively, were used in this study. Animals were anesthetized by peritoneal injection of a cocktail containing ketamine and xylazine (ketamine 100 mg, xylazine 20 mg/ml). The chest was opened and the heart quickly removed. The heart was briefly rinse in ice-cold Krebs-Henseleit solution (see below), and the aorta cannulated. The heart was then perfused at a flow rate of 10 ml/min with modified Krebs-Henseleit (K-H) solution containing NaCl 117.9, KCl 4.5, CaCl2 2.5, MgSO4 1.18, KH2PO4 1.18, pyruvate 2.0 mmol. […]
A1 adenosine receptor-mediated depression of A-V nodal conduction time (negative dromotropic effect) was measured. Atrial and ventricular surface electrograms in rats and His bundle electrogram in guinea pigs, were recorded during constant atrial pacing.
The effects of compounds on coronary conductance (A2A effect) and atrioventricular conduction time or stimulus-to-His-bundle (S-H) interval (A1 effect) was then determined. […] In each experiment, concentration-response relationship of compounds to increase coronary conductance and to prolong A-V conduction time or S-H interval was determined. […]

For `CC(C)NC(=S)OC[C@H]1O[C@@H](n2cnc3c(N[C@@H]4CCOC4)ncnc32)[C@H](O)[C@@H]1O` [Compound 47 of Example 2, 2-{6-[((3R)oxolan-3-yl)amino]purin-9-yl}(4S,2R,3R,5R)-5-({[(methylethyl)amino]thioxomethoxy}methyl)oxolane-3,4-diol], the “S-H interval Efficacy” value was “Full (>2759)”.
